Experimental data from PMC5004861.
Substitutions are numbered along the chain they refer to. Results are given in words; binding and its absence hold for the method and conditions named. Binding seen in cells or lysates may run through a third protein. Some entries that bind do so weakly or less than the wild type. Tags and fused reporters may be left off the sequences shown.

Chains of the proteins cited; added tags and fusions are not shown.
UniProt P11442: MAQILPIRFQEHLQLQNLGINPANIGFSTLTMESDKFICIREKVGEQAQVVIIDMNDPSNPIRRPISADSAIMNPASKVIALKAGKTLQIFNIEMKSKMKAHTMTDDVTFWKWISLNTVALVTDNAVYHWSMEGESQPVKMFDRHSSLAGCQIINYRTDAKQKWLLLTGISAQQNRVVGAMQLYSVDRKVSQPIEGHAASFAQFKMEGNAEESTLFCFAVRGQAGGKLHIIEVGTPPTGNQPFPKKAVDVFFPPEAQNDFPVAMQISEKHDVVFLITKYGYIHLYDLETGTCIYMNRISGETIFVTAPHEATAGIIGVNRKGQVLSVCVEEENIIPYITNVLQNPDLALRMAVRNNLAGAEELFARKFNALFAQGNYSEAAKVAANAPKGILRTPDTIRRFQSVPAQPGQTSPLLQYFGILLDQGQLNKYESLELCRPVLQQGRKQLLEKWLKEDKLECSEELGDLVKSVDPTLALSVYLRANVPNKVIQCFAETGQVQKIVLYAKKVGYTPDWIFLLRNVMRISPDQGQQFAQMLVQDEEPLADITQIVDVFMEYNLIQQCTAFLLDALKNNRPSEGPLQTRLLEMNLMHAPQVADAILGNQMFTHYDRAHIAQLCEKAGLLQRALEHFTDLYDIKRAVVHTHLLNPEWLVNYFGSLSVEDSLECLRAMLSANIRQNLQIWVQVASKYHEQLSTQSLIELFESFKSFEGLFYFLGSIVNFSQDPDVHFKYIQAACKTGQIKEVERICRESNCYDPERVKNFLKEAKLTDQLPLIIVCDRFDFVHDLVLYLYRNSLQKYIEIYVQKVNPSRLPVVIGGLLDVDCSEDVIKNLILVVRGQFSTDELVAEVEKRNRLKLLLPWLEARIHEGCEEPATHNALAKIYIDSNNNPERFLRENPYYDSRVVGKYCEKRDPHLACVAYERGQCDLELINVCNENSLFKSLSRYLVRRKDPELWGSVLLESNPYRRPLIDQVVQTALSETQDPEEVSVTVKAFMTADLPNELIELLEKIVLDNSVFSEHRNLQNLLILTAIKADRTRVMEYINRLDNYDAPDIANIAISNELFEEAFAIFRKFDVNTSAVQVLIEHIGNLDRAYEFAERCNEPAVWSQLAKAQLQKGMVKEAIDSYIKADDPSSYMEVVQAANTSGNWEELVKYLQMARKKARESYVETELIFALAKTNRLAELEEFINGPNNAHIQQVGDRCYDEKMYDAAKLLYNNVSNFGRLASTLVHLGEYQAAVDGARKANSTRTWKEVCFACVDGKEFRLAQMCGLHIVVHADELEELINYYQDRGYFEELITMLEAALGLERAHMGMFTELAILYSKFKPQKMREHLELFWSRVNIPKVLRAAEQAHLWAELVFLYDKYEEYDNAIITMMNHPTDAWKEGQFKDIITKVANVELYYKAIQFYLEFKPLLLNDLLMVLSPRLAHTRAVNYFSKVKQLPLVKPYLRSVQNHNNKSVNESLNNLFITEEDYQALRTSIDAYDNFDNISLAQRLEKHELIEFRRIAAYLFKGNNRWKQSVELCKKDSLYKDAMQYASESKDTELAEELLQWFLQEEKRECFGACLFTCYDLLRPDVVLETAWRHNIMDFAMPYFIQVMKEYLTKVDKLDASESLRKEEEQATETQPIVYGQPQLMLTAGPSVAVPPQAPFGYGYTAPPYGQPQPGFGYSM

Columns and labels:
Assay in all cases: pull-down; GST fusion on glutathione-Sepharose beads (typically 5 μg bait) with rat brain synaptosome lysate (2-2.5 mg protein), 10 min or 1 h at 4°C; washes in 20 mM Tris pH 7.4, 1 mM EGTA, 1 mM EDTA; Western blot with anti-clathrin heavy chain, adjusted to the bait seen by Coomassie; only the target …
[1] = biological target: T1, GST-CALM Site 1 mutant (human CALM isoform 1) (human) (UniProt Q13492)
T1 sequence: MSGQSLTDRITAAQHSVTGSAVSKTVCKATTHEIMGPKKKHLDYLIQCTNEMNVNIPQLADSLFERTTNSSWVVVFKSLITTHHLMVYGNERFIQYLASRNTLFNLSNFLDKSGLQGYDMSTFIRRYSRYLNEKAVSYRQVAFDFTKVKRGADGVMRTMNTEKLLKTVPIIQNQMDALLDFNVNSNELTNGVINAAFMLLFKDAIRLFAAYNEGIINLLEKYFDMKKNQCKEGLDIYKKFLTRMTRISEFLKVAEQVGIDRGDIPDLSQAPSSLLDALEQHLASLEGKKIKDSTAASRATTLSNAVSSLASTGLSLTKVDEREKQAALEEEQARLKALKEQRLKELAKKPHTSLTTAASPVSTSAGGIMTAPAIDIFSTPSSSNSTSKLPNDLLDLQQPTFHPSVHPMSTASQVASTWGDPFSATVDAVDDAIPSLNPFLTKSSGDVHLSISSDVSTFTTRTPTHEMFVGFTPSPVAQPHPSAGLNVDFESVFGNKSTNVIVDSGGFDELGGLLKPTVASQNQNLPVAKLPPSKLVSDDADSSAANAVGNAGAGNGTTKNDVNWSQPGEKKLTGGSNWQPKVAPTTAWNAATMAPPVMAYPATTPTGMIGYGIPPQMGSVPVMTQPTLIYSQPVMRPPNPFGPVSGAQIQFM

[2] = biological target: T2, GST-CALM Site 1&2 double mutant (human CALM isoform 1) (human) (UniProt Q13492)
T2 sequence: T1 sequence with I649A, F651A, M652A

[3] = biological target: T3, GST-CALM WT (human CALM isoform 1) (human) (UniProt Q13492)
T3 sequence: T1 sequence with A540L, A544L, A547L, A551L, A553I

[4] = biological target: T4, GST-CALM Site 2 mutant (human CALM isoform 1) (human) (UniProt Q13492)
T4 sequence: T1 sequence with A540L, A544L, A547L, A551L, A553I, I649A, F651A, M652A

With “clathrin from rat brain synaptosome lysate, detected as clathrin heavy chain (from UniProt P11442 1-1675)” the binding [1] was “binds”, the binding [2] was “no binding” and the binding [3] was “binds”. For the same substance, the binding [4] was “binds”.
